Values of other authors in patent US10456383B2, “Targeted approach in the management of Epidermolysis bullosa” (The Board of Trustees of the Leland Stanford Junior …, priority 2017, dated 2019).
For at least one compound, name, drawing or mass did not settle the structure.

Key:
[1] = tested on: cell cycle
[2] = tested on: overall protein synthesis

CO[C@H]1C[C@@H]2CC[C@@H](C)[C@@](O)(O2)C(=O)C(=O)N2CCCC[C@H]2C(=O)O[C@H]([C@H](C)C[C@@H]2CC[C@@H](O)[C@H](OC)C2)CC(=O)[C@H](C)/C=C(\C)[C@@H](O)[C@@H](OC)C(=O)[C@H](C)C[C@H](C)/C=C/C=C/C=C/1C [Sirolimus]
effect on cell cycle [1]: cell cycle arrest in G1 phase
decrease of overall protein synthesis [2]: 20%
